Test results published in patent publication US4328214A, “Cyclopeptides and pharmaceutical preparations thereof and also processes for their manufacture” (Ciba-Geigy Corporation, priority 1979, dated 1982).
Part of at least one peptide drawing is inferred or uncertain, most often the ends. Numbered stars: 1 amine (or outer) side, 2 acyl side, 3 side chain; on linkers, the order of the positions; unused ones are H or OH. Square brackets hold non-standard residues; d marks the D form. Peptide text beside a SMILES is read from it. X1 = O=C(CC(CN[*:1])c1cccc2ccccc12)[*:2]

Tested on: insulin and glucagon release
Assay: determination of insulin and glucagon release using the isolated perfused pancreas of a rat
Conditions: multiple of the reference's inhibitory effect

Q: Which “inhibitory effect relative to [D-Trp^8 ; Gaba^12 ]-cyclosomatostatin(5-12)-octapeptide (formula M, p=1)” value does the source give for `C[C@@H](O)[C@@H]1NC(=O)[C@H](CCCCN)NC(=O)[C@@H](Cc2c[nH]c3ccccc23)NC(=O)[C@H](Cc2ccccc2)NC(=O)[C@H](Cc2ccccc2)NC(=O)[C@H](CC(N)=O)NC(=O)CC(c2cccc3ccccc23)CNC(=O)[C@H](Cc2ccccc2)NC1=O` (single isomer, unassigned) [formula ID isomer B, [D-Trp^8; β-(1-naphthyl)Gaba^12]-cyclosomatostatin(5-12)-octapeptide-isomer B] (cyclo(FF[dW]KTF[X1]N)) here?
A: approximately 20 times
